Data reported in publication PMC8740778, “Translational Pharmacokinetic–Pharmacodynamic Modeling of NaV1.7 Inhibitor MK-2075 to Inform Human Efficacious Dose” (Frontiers in Pharmacology, 2021).

System: BALB/c male mice
Experiment: Mouse tail flick latency
Format: in vivo
Conditions: total plasma concentration, sigmoidal Emax model, SC dosing, read-out: Mouse tail flick EC50, mean ± SE

**Q.** With CN1CC[C@]23c4c5ccc(O)c4O[C@H]2[C@@H](O)C=C[C@H]3[C@H]1C5 [Morphine] as the molecule, how does the EC50 read?
**A.** Its EC50 is 140 ± 30 nM.
